Data reported in patent publication US20160002179A1, “SUBSTITUTED IMIDAZOLE AND (1,2,4)TRIAZOLE COMPOUNDS AS FUNGICIDES” (BASF SE, priority 2013, published 2016).
Some results were stated once for a whole list of compounds, not compound by compound.

Assays:
Format in all cases: in vivo
[1] = system: Botrytis cinerea; experiment: Preventative fungicidal control of Botrytis cinerea on leaves of green pepper (Botrci P1); settings: 150 ppm, sprayed to run-off, inoculated next day, assessed after 5 days; untreated plants 90% infected
[2] = system: Phakopsora pachyrhizi; experiment: Protective control of soy bean rust on soy beans caused by Phakopsora pachyrhizi (Phakpa P1); settings: 150 ppm, sprayed to run-off, inoculated after 1 day, assessed after fourteen days; untreated plants 90% infected
[3] = system: Puccinia recondita; experiment: Preventative control of brown rust on wheat caused by Puccinia recondita (Puccrt P1); settings: 150 ppm, sprayed to run-off, inoculated next day, assessed after 24 h humid chamber plus 6 days; untreated plants 90% infected
[4] = system: Septoria tritici; experiment: Preventative control of leaf blotch on wheat caused by Septoria tritici (Septtr P1); settings: 150 ppm, sprayed to run-off, inoculated the following day, assessed after 4 weeks; untreated plants 90% infected

| Structure (SMILES) | infection (% diseased leaf area) [1] | infection (% diseased leaf area) [2] | infection (% diseased leaf area) [3] | infection (% diseased leaf area) [4] |
| --- | --- | --- | --- | --- |
| OC(Cn1ncnc1S)(c1ccc(Oc2ccc(Cl)cc2)cc1Cl)C1CC1 (stereo not drawn) [Ie] | less than or equal to 3% | less than or equal to 15% | less than or equal to 15% | less than or equal to 15% |
| CC#CC(O)(Cn1ncnc1S)c1ccc(Oc2ccc(Cl)cc2)cc1Cl (stereo not drawn) [compound If, 2-[2-chloro-4-(4-chlorophenoxy)phenyl]-1-(5-sulfanyl-1,2,4-triazol-1-yl)pent-3-yn-2-ol] | less than or equal to 3% | less than or equal to 15% | less than or equal to 15% | less than or equal to 15% |
| CC(O)(Cn1ncnc1S)c1ccc(Oc2ccc(Cl)cc2)cc1C(F)(F)F (stereo not drawn) [Ib] | less than or equal to 3% | less than or equal to 15% | less than or equal to 15% | less than or equal to 15% |
| COC(C)(Cn1ncnc1S)c1ccc(Oc2ccc(Cl)cc2)cc1C(F)(F)F (stereo not drawn) [Ih] | less than or equal to 3% | less than or equal to 15% | less than or equal to 15% | less than or equal to 15% |
| CC(C)C(O)(Cn1ncnc1S)c1ccc(Oc2ccc(Cl)cc2)cc1Cl (stereo not drawn) [Ig] | less than or equal to 3% | less than or equal to 15% | less than or equal to 15% | less than or equal to 15% |
| CC(C)C(O)(Cn1ncnc1S)c1ccc(Oc2ccc(Cl)cc2)cc1C(F)(F)F (stereo not drawn) [Ic] | less than or equal to 3% | less than or equal to 15% | less than or equal to 15% | less than or equal to 15% |
| CC(O)(Cn1ncnc1S)c1ccc(Oc2ccc(Cl)cc2)cc1Cl (stereo not drawn) [Ia] | less than or equal to 3% |  | less than or equal to 15% | less than or equal to 15% |
